{
  "source": "patent US20220153786A1",
  "about": "“PEPTIDES FOR PREVENTING BIOFILM FORMATION” (priority 2019, published 2022)",
  "key": {"[1]": {"system": "atlE, aap, agrC, icaA, leuA, saeR, saeS, sarA", "assay": "qRT-PCR of genes involved in biofilm development", "format": "cell-based, Staphylococcus epidermidis", "conditions": "10 μM, exposed cells compared to planktonic control cells"}, "[2]": {"system": "Staphylococcus epidermidis (ATCC 35984) biofilm matrix", "assay": "Macroscopic and microscopic (SEM, TEM) analysis of biofilm matrix", "format": "cell-based"}},
  "note": "Not every detail of the peptide structures is certain; ends, links or a residue may be inferred. Where a SMILES comes first, the peptide text is derived from it.",
  "data": [
    {"molecule": "CC[C@H](C)[C@H](NC(=O)[C@H](CCC(N)=O)NC(=O)[C@H](CCC(N)=O)NC(=O)[C@H](CCC(N)=O)NC(=O)[C@H](CS)NC(=O)[C@H](CO)NC(=O)[C@@H](N)CCCNC(=N)N)C(=O)N[C@@H](CCC(N)=O)C(=O)N[C@@H](CCC(N)=O)C(=O)N[C@@H](C)C(=O)N[C@@H](CCC(N)=O)C(=O)N[C@@H](CCC(N)=O)C(=O)N[C@@H](CC(C)C)C(=O)N[C@@H](CO)C(=O)N[C@@H](CO)C(=O)N[C@@H](CS)C(=O)N[C@@H](CCC(N)=O)C(=O)N[C@@H](CCC(N)=O)C(=O)N[C@@H](Cc1ccc(O)cc1)C(=O)N[C@@H](CC(C)C)C(=O)N[C@@H](CCCCN)C(=O)N[C@@H](CCC(N)=O)C(=O)O", "note": "[P3] (H-RSCQQQIQQAQQLSSCQQYLKQ-OH)", "values": [
      {"measurement": "gene expression fold changes versus planktonic control", "setting": "[1]", "result": "same fold changes as the control"},
      {"measurement": "macroscopic observation of culture wells", "setting": "[2]; 24 h, 24-well plates", "result": "whitish flocculent non-adhered heterogeneous agglutinates"},
      {"measurement": "biofilm matrix ultra-structure (SEM and TEM)", "setting": "[2]; 24 h in presence of peptide", "result": "clearly less dense and had thin fibrillary branch-like structures"}
    ]}
  ]
}
